Measurements reported in publication PMC4031048.

The chains behind the UniProt entries cited, without tags or fusion partners. Where a name states a change or a piece, a line headed by the entry shows the natural chain unless it says otherwise.
UniProt Q62231: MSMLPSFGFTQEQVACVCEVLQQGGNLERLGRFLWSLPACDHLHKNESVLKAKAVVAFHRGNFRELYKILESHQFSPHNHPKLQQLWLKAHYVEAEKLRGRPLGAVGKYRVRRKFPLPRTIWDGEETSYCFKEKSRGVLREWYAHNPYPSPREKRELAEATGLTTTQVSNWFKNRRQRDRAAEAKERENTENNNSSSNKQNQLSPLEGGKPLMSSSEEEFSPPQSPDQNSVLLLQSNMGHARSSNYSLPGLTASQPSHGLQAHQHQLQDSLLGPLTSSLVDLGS

Target: Six1 (Mus musculus) (UniProt Q62231)
Experiment: EMSA
Details: labeled probe; EMSA as previously described (ref 38); pH and temperature not given; protein translated in vitro; residues 1-284

“TGGGGGGGCTCAGGTTTCTGTGGCGT (double strand) [Myogenin MEF3]”: binds.

The exact form of at least one protein or probe is not confirmed. At least one verdict was read from the data and is not stated in words by the source.
